{"source": "PubChem BioAssay AID1347131", "about": "(National Center for Advancing Translational Sciences (NCATS), 2019)", "note": "Hit rate of the full screen: of about 410,000 compounds, about 2,000 (0.49%) were called active. Inconclusive means that the source gave no clear call. Such entries were picked first, then a sample of the others. Calls follow the shape of the full dose curve; tested in HEK293 reporter line. A potency beside an inconclusive call is a rough fit, not a confirmed value. Potency is read from the fitted curve at half-maximal effect.", "data": [{"experiment": "qHTS Assay for Foot and Mouth Disease Virus Antivirals: Primary Screen against the MLPCN compound library; also: nearly all actives have a fitted effect of over 55% in size", "details": "FMDV antiviral cell-based qHTS; activity, negative = inhibition: at 57.9 µM (top of the series)", "values": [{"molecule": "CN1C/C(=C/c2ccsc2)C(=O)/C(=C/c2ccsc2)C1", "Potency": "inconclusive: 28.2 µM [inhibitor, partial curve, poor fit]"}, {"molecule": "CCCOc1ccc(-c2cc3onc(-c4ccccc4)c3c(=O)n2C)cc1", "Potency": "inconclusive: 17.8 µM [inhibitor, single point]"}, {"molecule": "CCCCCn1c(=O)[nH]c2cc(C(=O)NCc3ccccn3)ccc2c1=O", "Potency": "inconclusive: 10 µM [inhibitor, partial curve]"}, {"molecule": "CN(c1ccccc1)S(=O)(=O)c1cccc(NC(=O)c2ccc3ncsc3c2)c1", "Potency": "inconclusive: 35.5 µM [inhibitor, partial curve, poor fit]"}, {"molecule": "CCc1ccc(-c2nc(CSCC(=O)N3CCN(c4ccccn4)CC3)c(C)o2)cc1", "Potency": "inconclusive: 20 µM [inhibitor, partial curve, poor fit]"}, {"molecule": "COc1ccc(-c2c3c(=O)n(C)c(=O)n(C)c3c3c(-c4ccccc4)nc4ccccc4n23)cc1", "activity, negative = inhibition": "inactive: -18%"}, {"molecule": "C=CCn1c(N2CCN(c3ccc(OC)cc3)CC2)nc2c1c(=O)n(C)c(=O)n2C", "Potency": "inconclusive: 28.2 µM [inhibitor, partial curve, poor fit]"}, {"molecule": "O=C(Cc1ccc(-n2c(=O)[nH]c3ccccc3c2=O)cc1)N1CCN(c2cccc(Cl)c2)CC1", "Potency": "inconclusive: 10 µM [inhibitor, partial curve]"}, {"molecule": "O=C(NC1CCCCCCC1)C1CCN(c2nc3ccccc3o2)CC1", "Potency": "inconclusive: 14.1 µM [inhibitor, partial curve, poor fit]"}, {"molecule": "Cc1ccc(S(=O)(=O)N/N=C/c2ccc(OCC(=O)N3CCOCC3)cc2)cc1", "activity, negative = inhibition": "inactive: 121%"}, {"molecule": "COc1ccc(CCNc2nc(SCc3ccccc3Cl)nc3ccccc23)cc1OC", "Potency": "inconclusive: 15.8 µM [inhibitor, partial curve, poor fit]"}, {"molecule": "CCOC(=O)c1ccc(N2C(=O)c3[nH]nc(-c4ccccc4)c3C2c2cccs2)cc1", "note": "(centres undefined)", "Potency": "inconclusive: 17.8 µM [inhibitor, single point]"}, {"molecule": "O=C(COc1ccccc1)Nc1nc(-c2ccncc2)cs1", "Potency": "inconclusive: 28.2 µM [inhibitor, partial curve, poor fit]"}, {"molecule": "Cc1ccc(C)c(CSc2ncccc2C(=O)O)c1", "Potency": "inconclusive: 39.8 µM [inhibitor, partial curve, poor fit]"}, {"molecule": "COc1cc(OC)cc(C(=O)N[C@H](C(=O)Nc2nc3ccccc3[nH]2)C(C)C)c1", "activity, negative = inhibition": "inactive: -32.3%"}, {"molecule": "COc1ccc2nc(Nc3nc(C)c(C(C)=O)s3)sc2c1", "Potency": "inconclusive: 39.8 µM [inhibitor, single point]"}, {"molecule": "CCOc1ccc(OCC)c(NC(=O)CN(c2ccc(C)cc2)S(=O)(=O)c2c(C)n[nH]c2C)c1", "Potency": "inconclusive: 7.08 µM [inhibitor, partial curve, poor fit]"}, {"molecule": "COc1cccc(CNC(=O)Cn2cc3c(n2)-c2c(oc(C(=O)N4CCOCC4)c2C)CC3)c1", "activity, negative = inhibition": "inactive: -31.3%"}, {"molecule": "COc1ccc(NC(=O)/C(C#N)=C/c2c(C)nn(-c3ccc(F)cc3)c2Cl)cc1OC", "Potency": "inconclusive: 22.4 µM [inhibitor, partial curve, poor fit]"}, {"molecule": "COc1ccc(-c2cc(C(F)(F)F)nc(S(=O)(=O)CCCC(=O)Nc3ccccc3C(F)(F)F)n2)cc1OC", "Potency": "inconclusive: 22.4 µM [inhibitor, partial curve, poor fit]"}, {"molecule": "CCOc1cc(C(=O)NC(C)CCc2ccccc2)cc(OCC)c1OCC", "note": "(centres undefined)", "Potency": "inconclusive: 39.8 µM [inhibitor, partial curve, poor fit]"}, {"molecule": "CCn1cc2nc(SCc3cc(C)ccc3C)n(Cc3ccc(C)cc3)c(=O)c2n1", "Potency": "inconclusive: 14.1 µM [inhibitor, partial curve, poor fit]"}, {"molecule": "C[n+]1ccccc1Nc1cc([N+](=O)[O-])ccc1N", "Potency": "inconclusive: 2.24 µM [inhibitor, full curve]"}, {"molecule": "Cc1ccc(NC2=Nc3ccccc3CC2)cc1", "Potency": "inconclusive: 15.8 µM [inhibitor, single point]"}, {"molecule": "Cc1ccc2nc(NC(=O)c3cc(-c4ccco4)nc4ccccc34)sc2c1", "activity, negative = inhibition": "inactive: -32.7%"}, {"molecule": "O=C(O)c1cc(N/N=C/c2ccc3c(c2)OCO3)ccc1Cl", "Potency": "inconclusive: 14.1 µM [inhibitor, partial curve, poor fit]"}, {"molecule": "Cc1ccc(-c2nc(-c3ccccn3)no2)cc1Cl", "Potency": "inconclusive: 10 µM [inhibitor, partial curve, poor fit]"}, {"molecule": "O=C(C1CCCN1S(=O)(=O)c1cccc2nsnc12)N1CCN(c2ccc(F)cc2)CC1", "note": "(centres undefined)", "Potency": "inconclusive: 4.47 µM [inhibitor, partial curve]"}, {"molecule": "CCOC(=O)c1ccc(N2C=C(C(=O)OC)C(c3ccc(OC)c(O)c3)C(C(=O)OC)=C2)cc1", "activity, negative = inhibition": "inactive: -35%"}, {"molecule": "Cc1sc(-c2cc3ccccc3oc2=O)nc1-c1ccc(Cl)cc1", "Potency": "inconclusive: 15.8 µM [inhibitor, single point]"}, {"molecule": "CCc1ccc2oc(-c3cc(N)ccc3Cl)nc2c1", "Potency": "active: 17.8 µM"}, {"molecule": "COC(=O)c1sccc1NC(=O)Nc1ccc(C)c(C)c1", "Potency": "inconclusive: 17.8 µM [inhibitor, single point]"}, {"molecule": "Cc1ccc(C)c(CSc2c(C(C)C)cnc3c2c(=O)n(C)c(=O)n3C)c1", "Potency": "inconclusive: 2.24 µM [inhibitor, full curve]"}, {"molecule": "COc1ccc(CCNc2nnc(Sc3nnnn3-c3ccccc3)s2)cc1OC", "Potency": "inconclusive: 28.2 µM [inhibitor, partial curve, poor fit]"}, {"molecule": "Cc1ccc(-c2nnc(SCC(=O)NCCC(C)C)nc2-c2ccc(C)cc2)cc1", "Potency": "inconclusive: 22.4 µM [inhibitor, single point]"}, {"molecule": "Cc1cccc(NC(=O)/C(C#N)=C\\c2ccc(C(=O)O)cc2)c1", "activity, negative = inhibition": "inactive: -31%"}, {"molecule": "Cc1nc2ccccc2c(N)c1C(=O)/C=C/c1ccccc1", "Potency": "inconclusive: 17.8 µM [inhibitor, partial curve, poor fit]"}, {"molecule": "CN(C)c1ccc(/C=C/C=C/c2sc3ccccc3[n+]2C)cc1", "Potency": "inconclusive: 39.8 µM [inhibitor, partial curve, poor fit]"}, {"molecule": "NC(=O)C1CCN(c2nc(-c3ccccc3)nc3ccccc23)CC1", "Potency": "inconclusive: 25.1 µM [inhibitor, partial curve, poor fit]"}]}]}
